Laboratory results from patent publication US12344637B2, “Virus-inspired compositions and methods of redirecting preexisting immune responses using the same for treatment of cancer” (priority 2020, dated 2025).
Some of these results come from one statement about several compounds together. Part of at least one peptide drawing is inferred or uncertain, most often the ends.

Columns and labels:
ID8-luc tumor cells = experiment: In vitro cytotoxic T-cell tumor killing assay, ID8-luc; format: cell-based, murine; conditions: OVA-specific CD8+ T-cells, E:T 20:1, 16 h, IRC 2.5 μg/mL, free peptide 1 μg/mL
B16-luc tumor cells = experiment: In vitro cytotoxic T-cell tumor killing assay, B16-luc; format: cell-based, murine; conditions: OVA-specific CD8+ T-cells, E:T 10:1, 16 h, IRC 2.5 μg/mL, free peptide 1 μg/mL

CC[C@H](C)[C@H](NC(=O)[C@@H](NC(=O)[C@@H](N)CO)[C@@H](C)CC)C(=O)N[C@@H](CC(N)=O)C(=O)N[C@@H](Cc1ccccc1)C(=O)N[C@@H](CCC(=O)O)C(=O)N[C@@H](CCCCN)C(=O)N[C@@H](CC(C)C)C(=O)O [peptide positive control, reference compound]
tumor cell cytotoxicity (ID8-luc tumor cells): > 70%
tumor cell cytotoxicity (B16-luc tumor cells): > 70%
